Measurements published in article PMC6465354.
These are yes or no findings as the source states them, for the method shown. In cells and extracts the contact can be indirect. Binding can be weak; no strength is given. Tags and fused reporters may be left off the sequences shown.

The chains behind the UniProt entries cited, without tags or fusion partners. Where a name states a change or a piece, a line headed by the entry shows the natural chain unless it says otherwise.
UniProt Q63372: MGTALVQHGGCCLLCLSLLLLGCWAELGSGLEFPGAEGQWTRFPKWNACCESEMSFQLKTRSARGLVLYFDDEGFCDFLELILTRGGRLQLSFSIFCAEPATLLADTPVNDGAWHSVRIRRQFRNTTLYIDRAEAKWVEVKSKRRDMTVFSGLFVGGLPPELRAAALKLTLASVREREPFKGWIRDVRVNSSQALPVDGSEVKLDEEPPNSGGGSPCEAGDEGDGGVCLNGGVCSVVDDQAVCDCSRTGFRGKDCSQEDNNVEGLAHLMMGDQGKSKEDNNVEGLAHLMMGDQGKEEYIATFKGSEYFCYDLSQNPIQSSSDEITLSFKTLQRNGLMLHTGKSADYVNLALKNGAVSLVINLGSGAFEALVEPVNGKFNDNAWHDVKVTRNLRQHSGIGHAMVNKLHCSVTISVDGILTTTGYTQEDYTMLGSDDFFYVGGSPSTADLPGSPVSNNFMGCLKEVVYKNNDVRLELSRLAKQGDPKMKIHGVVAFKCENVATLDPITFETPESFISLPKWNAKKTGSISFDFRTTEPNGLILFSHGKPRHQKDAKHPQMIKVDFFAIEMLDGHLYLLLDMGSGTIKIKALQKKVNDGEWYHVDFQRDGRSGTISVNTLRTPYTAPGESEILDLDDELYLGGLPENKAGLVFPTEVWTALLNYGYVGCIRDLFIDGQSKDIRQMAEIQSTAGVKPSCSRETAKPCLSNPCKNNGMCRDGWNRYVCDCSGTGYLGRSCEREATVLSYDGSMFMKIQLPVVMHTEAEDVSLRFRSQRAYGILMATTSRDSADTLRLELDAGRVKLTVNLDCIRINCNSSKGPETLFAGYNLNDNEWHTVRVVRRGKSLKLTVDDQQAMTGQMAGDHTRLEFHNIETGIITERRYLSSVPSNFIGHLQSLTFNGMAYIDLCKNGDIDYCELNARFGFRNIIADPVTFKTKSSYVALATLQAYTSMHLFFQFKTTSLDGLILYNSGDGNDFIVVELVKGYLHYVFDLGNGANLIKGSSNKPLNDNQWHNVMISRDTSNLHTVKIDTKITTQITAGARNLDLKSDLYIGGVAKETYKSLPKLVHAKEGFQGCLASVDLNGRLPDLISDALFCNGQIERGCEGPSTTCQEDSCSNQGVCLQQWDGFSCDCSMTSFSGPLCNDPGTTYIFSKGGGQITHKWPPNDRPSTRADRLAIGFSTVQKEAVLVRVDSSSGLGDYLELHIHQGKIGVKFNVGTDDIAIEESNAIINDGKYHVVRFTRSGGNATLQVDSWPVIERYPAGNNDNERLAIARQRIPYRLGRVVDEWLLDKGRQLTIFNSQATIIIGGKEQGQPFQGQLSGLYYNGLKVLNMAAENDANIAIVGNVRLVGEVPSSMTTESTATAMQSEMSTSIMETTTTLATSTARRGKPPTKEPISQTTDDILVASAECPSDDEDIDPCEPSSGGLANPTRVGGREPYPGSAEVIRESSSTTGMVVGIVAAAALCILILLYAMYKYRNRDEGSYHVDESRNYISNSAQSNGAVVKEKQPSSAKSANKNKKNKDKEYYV

Molecular target: GST-Nrxn1α fusion protein (cytosolic domain of neurexin-1α) (UniProt Q63372)
Experiment: pull-down; GST-Nrxn1α cytosolic domain immobilized on glutathione sepharose beads; HEK293T lysates with GFP-tagged Mint2 in 50 mM Tris-HCl pH 7.2, 1 mM EDTA, 150 mM NaCl, 1% NP-40; 2 h at 4 °C; Western blot, quantified as percent of Mint2 WT; only the target purified

Row | binding | Binder
1 | binds | GFP-tagged Mint2 wild type (rat) (protein, UniProt O35431 1-750) MAHRKRQSTASSMLDHRARPGPIPHDQEPENEDTELPLESYVPTGLELGTLRPDSPTPEEQECHNHSPDGDSSSDYVNNTSEEEDYDEGLPEEEEGVTYYIRYCPEDDSYLEGMDCNGEEYLAHGAHPVDTDECQEAVEDWTDSVGPHTHSHGAENSQEYPDSHLPIPEDDPTVLEVHDQEEDGHYCPSKESYQDYYPPETNGNTGGASPYRMRRGDGDLEEQEEDIDQIVAEIKMSLSMTSITSASEASPEHMPELDPGDSTEACSPSDTGRGPSRQEARPKSLNLPPEVKHSGDPQRGLKTKTRTPEERPKWPQEQVCNGLEQPRKQQRSDLNGPTDNNNIPETKKVASFPSFVAVPGPCEPEDLIDGIIFAANYLGSTQLLSERNPSKNIRMMQAQEAVSRVKRMQKAAKIKKKANSEGDAQTLTEVDLFISTQRIKVLNADTQETMMDHALRTISYIADIGNIVVLMARRRMPRSASQDCIETTPGAQEGKKQYKMICHVFESEDAQLIAQSIGQAFSVAYQEFLRANGINPEDLSQKEYSDIINTQEMYNDDLIHFSNSENCKELQLEKHKGEILGVVVVESGWGSILPTVILANMMNGGPAARSGKLSIGDQIMSINGTSLVGLPLATCQGIIKGLKNQTQVKLNIVSCPPVTTVLIKRPDLKYQLGFSVQNGIICSLMRGGIAERGGVRVGHRIIEINGQSVVATAHEKIVQALSNSVGEIHMKTMPAAMFRLLTGQETPLYI
2 | binds | GFP-tagged Mint2 N723S (rat) (protein, UniProt O35431 1-750) MAHRKRQSTASSMLDHRARPGPIPHDQEPENEDTELPLESYVPTGLELGTLRPDSPTPEEQECHNHSPDGDSSSDYVNNTSEEEDYDEGLPEEEEGVTYYIRYCPEDDSYLEGMDCNGEEYLAHGAHPVDTDECQEAVEDWTDSVGPHTHSHGAENSQEYPDSHLPIPEDDPTVLEVHDQEEDGHYCPSKESYQDYYPPETNGNTGGASPYRMRRGDGDLEEQEEDIDQIVAEIKMSLSMTSITSASEASPEHMPELDPGDSTEACSPSDTGRGPSRQEARPKSLNLPPEVKHSGDPQRGLKTKTRTPEERPKWPQEQVCNGLEQPRKQQRSDLNGPTDNNNIPETKKVASFPSFVAVPGPCEPEDLIDGIIFAANYLGSTQLLSERNPSKNIRMMQAQEAVSRVKRMQKAAKIKKKANSEGDAQTLTEVDLFISTQRIKVLNADTQETMMDHALRTISYIADIGNIVVLMARRRMPRSASQDCIETTPGAQEGKKQYKMICHVFESEDAQLIAQSIGQAFSVAYQEFLRANGINPEDLSQKEYSDIINTQEMYNDDLIHFSNSENCKELQLEKHKGEILGVVVVESGWGSILPTVILANMMNGGPAARSGKLSIGDQIMSINGTSLVGLPLATCQGIIKGLKNQTQVKLNIVSCPPVTTVLIKRPDLKYQLGFSVQNGIICSLMRGGIAERGGVRVGHRIIEINGQSVVATAHEKIVQALSSSVGEIHMKTMPAAMFRLLTGQETPLYI
